Patent US5132429A, “Benzotriazole derivatives and fluorescence-emitting reagents thereof” (priority 1988, dated 1992)

Molecular target: α1-AG (α1-acid glycoprotein)
Assay: Binding constant of basic drug to α1-AG by displacement of compound 1 (fluorescence probe method, Klotz formula)
Conditions: 0.1M phosphoric acid buffer pH 7.4; 3×10^-6 M α1-AG; compound 1 as probe
Description: Two different kinds of solutions, one containing α1 -AG and a compound of this invention listed above, the other containing α1 -AG, the compound of this invention, and a drug, are prepared to measure fluorescence intensity at the excitation. fluorescence wavelength, as shown in Table 2. According to the working curve made beforehand, the binding rate of the compound to α1 -AG in each solution is determined and the binding constant of a drug to α1-AG is calculated from the difference between the binding rates in the presence and the absence of a drug.
In the fluorescence cell made of quartz with a plug was placed the buffer solution of 0.1M phosphoric acid (2 ml) which pH is 7.4 and containig 1×10^-4 M α1 -AG, to which 5×10^-4 M aqueous solution of the compound 1 was added by 2 μl each with a microcylinder, which was prepared by dissolving about 3 mg of the compound 1 in 1N hydrochloric acid (1 ml), followed by diluting with water to make the total volume 200 times, and the resulting solution was mixed fully to determine fluorescence intensity at 508 nm (excitation wavelength: 418 nm).
For the buffer solution of 0.1M phosphoric acid (2 ml) which pH is 7.4 and containing 3×10^-6 M α1 -AG, the same procedure as in Example 1 was performed.
As for the other basic drugs shown in Table 3, binding constant were obtained according to the same manner as in Example 11.

SMILES | log Kb (binding constant)
CC(C)NCC(O)COc1cccc2ccccc12 (centres unmarked) [propranolol] | 5.85
CN1CCN(CCCN2c3ccccc3Sc3ccc(Cl)cc32)CC1 [prochlorperazine] | 6.24
